Measured values reported in article PMC3408431.

Protein sequences, listed by entry. Tags and fused reporters are not part of them. Lines headed by an entry give the natural chain unless they say otherwise; changes in a name come on top.
UniProt Q9BST9: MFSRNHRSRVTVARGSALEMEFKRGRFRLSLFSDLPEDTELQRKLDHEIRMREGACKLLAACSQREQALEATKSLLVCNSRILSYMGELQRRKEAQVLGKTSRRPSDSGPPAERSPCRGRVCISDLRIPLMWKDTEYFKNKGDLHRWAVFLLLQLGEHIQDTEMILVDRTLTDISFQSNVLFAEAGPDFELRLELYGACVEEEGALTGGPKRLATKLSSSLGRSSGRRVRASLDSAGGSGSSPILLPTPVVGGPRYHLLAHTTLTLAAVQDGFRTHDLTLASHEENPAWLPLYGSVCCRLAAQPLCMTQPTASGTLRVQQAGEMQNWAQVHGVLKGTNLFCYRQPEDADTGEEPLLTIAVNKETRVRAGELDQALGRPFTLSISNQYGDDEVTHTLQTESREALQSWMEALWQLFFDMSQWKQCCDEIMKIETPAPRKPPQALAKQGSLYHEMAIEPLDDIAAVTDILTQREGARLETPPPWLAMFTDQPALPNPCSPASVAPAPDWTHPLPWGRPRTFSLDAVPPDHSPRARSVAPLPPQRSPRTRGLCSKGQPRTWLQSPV
UniProt P61585: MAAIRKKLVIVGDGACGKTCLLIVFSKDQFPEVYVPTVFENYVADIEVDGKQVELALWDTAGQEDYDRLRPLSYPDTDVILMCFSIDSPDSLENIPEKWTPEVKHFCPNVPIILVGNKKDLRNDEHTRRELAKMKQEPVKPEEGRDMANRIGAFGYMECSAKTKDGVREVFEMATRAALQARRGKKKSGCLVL

Columns and labels:
[1] = molecular target: Rho-binding domain of human Rhotekin fused to GST (human) (UniProt Q9BST9); experiment: pull-down; GST-Rhotekin-RBD on agarose beads; lysates of thrombin-treated BCEC pre-treated with cell-permeable C3-transferase for 3 hours at 37°C; bound RhoA detected by immunoblot with anti-RhoA; only the target purified
[2] = molecular target: Rho-binding domain of human Rhotekin fused to GST (human) (UniProt Q9BST9); experiment: pull-down; GST-Rhotekin-RBD on agarose beads; freshly prepared BCEC lysates before and 0.5-15 min after thrombin (2 U/ml); in vitro GTPgammaS-loaded RhoA as positive control; bound RhoA detected by immunoblot with anti-RhoA; only the target purified

binding [1]: binds weakly | binding [2]: binds
Substance: RhoA (from UniProt P61585 1-193)

Results are given in words; binding and its absence hold for the method and conditions named. Binding seen in cells or lysates may run through a third protein. Binding can be weak; no strength is given.
